Measurements published in PubChem BioAssay AID1347426 (Functional Genomics Laboratory (NCATS/FGL), 2020).
Screen size: about 31,000 sequences; about 1,400 (4.5%) were called active.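 The calls were made as follows: active = median seed-adjusted z-score above 1 or below -1; inactive = the rest.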 The list shows a part of the results.

Test: Novel Modifiers of Survival Motor Neuron (SMN) Protein: Gene Identification via Genome-wide siRNA Screen
Settings: HEK293T SMN2-luciferase reporter, siRNA knockdown, 72 h; actives lie on both sides
Text: Spinal muscular atrophy (SMA) is the most common neuromuscular autosomal recessive disorder and one of the leading genetic causes of infant death. SMA results from mutations inducing loss of function or deletion in the survival of motor neuron-1 gene (SMN1), leading to deficiency of the survival motor neuron (SMN) protein. Although a second nearly identical gene, SMN2, is retained in humans, its expression primarily produces an aberrantly spliced isoform that is largely unstable and quickly degraded. We performed a genome-wide RNAi screen using a cell-based reporter assay to identify genes and pathways that modulate SMN protein stability. The screen identified over 200 genes that led to the greatest increase or decrease in luciferase expression.
Using HEK293T cells stably expressing a luciferase reporter that combines the promoter and splicing based cassettes in tandem with the major portion of the native SMN2 cDNA with luciferase, we performed a genome-wide RNAi screen to identify modulators of SMN protein levels. Luciferase is expressed when full-length SMN protein is generated with luminescence signal proportional to SMN protein levels. Our luciferase-based reporter assay was used to screen Ambion Silencer Select Human Druggable Genome siRNA library (10418 genes, 3 unique siRNAs per gene) using lipid-based reverse transfection.
Briefly, 1 pmol of each siRNA was spotted to a well of a 384-well plate (Corning, Corning, NY) and 20 microL of serum-free DMEM containing […] of Lipofectamine RNAiMax (Life Technologies, Carlsbad, CA) was then added to each well. Transfected cells were maintained at 37 degrees C in 5% CO2 for 72 hours, 20 microL of ONE-Glo Reagent (Promega) was added to wells for luciferase quantification. Raw luminescence reads were normalized to Ambion(R) Silencer(R) Negative Control #2 siRNA, then log10 transformed. A robust statistical measure of median absolute deviation (MAD) to standardize siRNA activities from each screen. Common Seed Analysis was used to help prioritize clean hits as opposed to those appearing to arise from seed based off-target effects. Candidate modulators were defined as the genes having a MAD score greater than 1.0 or less than -1.0.

Sequence | median seed-adjusted z-score
AGAUACGCCUGUCCCACAATT against LRRC3 | inactive: -0.0448
GAAAACUAGCUCAACAAUATT against PSMA2 | inactive: -0.54
CGGUCUUCAUGAUUAAGUATT against FZD1 | inactive: -0.163
GGAUUUCGAACUCAACAAUTT against RASGRF2 | inactive: -0.225
CUCAGUACCUGGAAACAAATT against NP | inactive: -0.386
CAGUGGUAAUCACUAAUCATT against RAD51 | inactive: 0.594
GGAGUUAGUAUUACGAAAATT against KIF13A | inactive: 0
CGACUUCAAGGUGAAGACATT against RAB3B | inactive: -0.705
CAUUUGAGCUUAUCAUUAUTT against SLC2A5 | inactive: -0.429
AGACCAUCGGUAUAGUGGATT against STX10 | inactive: 0.772
GGAAUGACCUUUACAACUUTT against SAR1A | inactive: 0.0213
GGCCUAUCAUGAAUGGAAATT against BTN3A3 | inactive: 0.886
CACUUAUGAUUAUUAGCAUTT against SLC5A3 | inactive: -0.0305
GGACAUUUAUGGUCCCAAATT against PLA2G4E | inactive: 0.266
CAGUCAACCUGAUUUGAGATT against SOX7 | inactive: -0.387
AGGACGAUGCGGGCAUGUATT against FGFRL1 | inactive: -0.111
CAGACACUAUUUACCAUAUTT against ART4 | inactive: -0.0808
GCGAGACACUUGUAGUCCATT against ANGPT4 | inactive: 0
GGAAAUUGCUUACAGGAAATT against ARSJ | inactive: -0.0978
CCAACACUUUUGACCUUGATT against SLC6A20 | inactive: -0.306
GCAAGGACCCAACAACCAATT against TTC9 | inactive: -0.173
GCAGUGUAAUGGUAUCCGATT against VLDLR | inactive: 0.0487
GGUCAUCUUCGUGAUCCUUTT against SSTR4 | inactive: -0.00217
AGAAUUUGCUGAAAUGACUTT against MGC17403 | inactive: 0.204
GCAUCGACGUGAUCACCAUTT against GPR26 | active: -1.33
CAAUACACUUCACAAUUGATT against PECAM1 | inactive: 0.0717
CCACUAGUCUGACGGAUAATT against RIPK1 | inactive: -0.0157

Sequence | median seed-adjusted z-score
GAACCAAGCAAGGACUAUATT against GPATCH2 | inactive: 0.0828
GUUGCUCAGCGUAUCCAAATT against POLI | inactive: 0.857
CCUAAACUGCUUAAACGAUTT against MTMR12 | inactive: 0.419
GGCCUGAAGAGGGAUGAGATT against EDAR | inactive: 0.137
GGACGUGACCAAGAUCCUATT against DPP6 | inactive: 0.0505
CCAUCCGAGUGACCUUAAATT against CYB5B | inactive: 0
CCUCCACUCGAUUCAGCGATT against MMP28 | inactive: 0.862
GAACCACAAUGGUCAGCUATT against GAD2 | inactive: 0.0588
CCAACUUAAUAGUCAACUATT against ELAVL2 | inactive: -0.077
CCCGCAGGGUUAAAAAGGATT against CYP2A7 | inactive: 0.342
GUCUGCUUUGUAUAGAUAATT against KLRC3 | inactive: 0.833
CCAUGUCAGUCCUAGGAAATT against ATRIP | inactive: 0.353
GCUUUGUGGUGUGGAGUAUTT against LTB4R | inactive: 0.498
GGCUAAGUGCUGUCAUUCATT against HACE1 | inactive: 0
AGGAGAUUCUUGCAAUUAATT against CES2 | inactive: -0.47
CAACCGAAGCACAAAAGUUTT against ELL2 | inactive: 0.459
GAACCUUACUUCAUACCUATT against HAT1 | inactive: -0.622
GGUAGGAGUUAAAAGAUUATT against SRA1 | inactive: 0.677
GCAAGGUUCUGAGCAAGCUTT against APOA5 | inactive: -0.791
CGGUAUAAGCUGGUAGAUATT against EVPL | inactive: -0.146
ACAUUUAGCAGUAAGAAGATT against CCL13 | inactive: 0.135
GCACUUACUCCAACGAGGATT against PPP1R9B | inactive: -0.244
GAGUUACUACUUAGACAGATT against SMAD4 | inactive: 0.0746
GGAUUAAGCCCUUCGAAGATT against SOCS5 | inactive: 0.312
GAUUGAGAAUUCUAUUGUATT against UTP6 | inactive: -0.253
GCUCCUCGGCAGAUCAAUATT against CYFIP1 | inactive: -0.377
GUAAGGAUAUUUUGAGUUATT against RNF130 | inactive: -0.21

Some values from the results shown.
AGGAGAUUCUUGCAAUUAATT against CES2 – median seed-adjusted z-score: inactive: -0.47
CCAUGUCAGUCCUAGGAAATT against ATRIP – median seed-adjusted z-score: inactive: 0.353
AGAUACGCCUGUCCCACAATT against LRRC3 – median seed-adjusted z-score: inactive: -0.0448
